Reference: paper PMC8580968
Results are given in words; binding and its absence hold for the method and conditions named. In cells and extracts the contact can be indirect. Some results given as binding are weak or reduced against the parent protein; the word gives no strength. For part of these data: Tags and fused reporters may be left off the sequences shown. Values belong to the molecule of their own block, whether it stands above or below them.

Amino acid sequences for entries named in this document (tags omitted).
UniProt O75317: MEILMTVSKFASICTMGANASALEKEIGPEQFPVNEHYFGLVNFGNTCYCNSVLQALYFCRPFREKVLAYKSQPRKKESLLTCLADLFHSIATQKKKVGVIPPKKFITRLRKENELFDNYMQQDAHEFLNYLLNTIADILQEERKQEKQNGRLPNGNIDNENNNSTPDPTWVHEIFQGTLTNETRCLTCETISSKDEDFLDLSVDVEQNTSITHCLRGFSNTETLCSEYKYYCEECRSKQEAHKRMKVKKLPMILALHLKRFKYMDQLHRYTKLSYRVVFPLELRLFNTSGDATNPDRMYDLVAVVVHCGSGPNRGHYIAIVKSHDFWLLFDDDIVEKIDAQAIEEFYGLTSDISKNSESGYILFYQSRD

Tests used:
[1] = target: T1, midkine (MDK)-GST (UniProt P21741); assay: pull-down; USP12-Flag and MDK-GST co-transfected into HEK293T cells; MDK-GST pulled down with glutathione-Sepharose 4B slurry beads; immunoblotting
T1 sequence: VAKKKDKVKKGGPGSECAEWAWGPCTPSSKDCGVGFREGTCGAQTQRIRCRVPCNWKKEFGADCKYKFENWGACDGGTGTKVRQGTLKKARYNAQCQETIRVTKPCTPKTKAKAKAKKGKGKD

[2] = target: T2, endogenous midkine (MDK) (human (endogenous in MDA-MB-231)) (UniProt P21741); assay: co-IP; endogenous proteins from MDA-MB-231 cells; anti-MDK antibody used for capture; endogenous USP12 and MDK examined by immunoblotting
T2 sequence: T1 sequence

[3] = target: ubiquitin-specific protease 12 (USP12)-Flag (UniProt O75317); assay: co-IP; USP12-Flag and MDK-GST co-transfected into HEK293T cells for 48 h; lysate incubated with anti-Flag M2 affinity gel overnight at 4 °C; beads washed with PBS three times; western blot

- binding [1]: binds
Molecule: ubiquitin-specific protease 12 (USP12)-Flag (from UniProt O75317 1-370) (enzyme)

- binding [2]: binds
Molecule: endogenous USP12 (from UniProt O75317 1-370) (enzyme)

- binding [3]: binds
B1: midkine (MDK)-GST (protein, UniProt P21741 21-143)
chain: T1 sequence
